# Measured values taken from article PMC12032302, “A20 attenuates oxidized self-DNA-mediated inflammation in acute kidney injury” (Signal Transduction and Targeted Therapy, 2025).
# Experiment: serum DNA of mice
# Type: in vivo, mouse
# Conditions: AKI mice; cisplatin 25 mg/kg, AA I 10 mg/kg every 24 h for 3 days or LPS 25 mg/kg, i.p.; n = 5; Fig. 1b
row,Compound,serum DNA levels
1,COc1cccc2c1cc([N+](=O)[O-])c1c(C(=O)O)cc3c(c12)OCO3 [aristolochic acid I],obviously elevated levels of DNA in serum
2,N.N.[Cl][Pt][Cl] [cisplatin],obviously elevated levels of DNA in serum
